Reference: patent US20070295251A1, “EPSP SYNTHASES: COMPOSITIONS AND METHODS OF USE” (Athenix Corporation, priority 2006, published 2007)
Substitutions are numbered along the chain they refer to.

B1: GRG1(EVO5): GRG1 Q-loop variant from Library 4 (SEQ ID NO:56) (protein)
chain: MKVTIQPGDLTGIIQSPASKSSMQRACAAALVAKGISEIINPGHSNDDKAARDIVSRLGARLEDQPDGSLQITSEGVKPVAPFIECGESGLSSRIFTPLVALSKEEVTIKGSGSLVTRPMDFFDEILPHLGVKVKSNQGKLPLVIQGPLKPADVTVDGSLSSQFLTGLLLAYAAADASDVAIKVTNLKSRPYIDLTLDVMKRFGLKTPENRNYEEFYFKAGNVYDETKMQRYTVEGDWSGGAFLLVAGAIAGPITVRGLDIASTQADKAIVQALMSANAGIAIDAKEIKLHPADLNAFEFDATDCPDLFPPLVALASYCKGETKIKGVSRLAHKESDRGLTLQDEFGKMGVEIHLEGDLMRVIGGKGVKGAEVSSRHDHRIAMACAVAALKAVGETTIEHAEAVNKSYPDFYSDLKQLGGVVSLNHQFNFS
modifications: GRG1 variant - GRG1(EVO5)
B2: GRG1(EVO6): GRG1(EVO5) with N186 to K change (SEQ ID NO:57) (protein)
chain: B1 chain with N186K
modifications: GRG1 variant - GRG1(EVO6)

System: transgenic maize plants
Experiment: Transgenic maize plants sprayed with 14 mM glyphosate, resistance scored after two weeks
Type: in vivo
Details: Western blot

Molecule | Expression of EPSPS observed | Expression of EPSPS observed (listed as GRG1 (EVO6))
B1 | expression and YES | –
B2 | YES | expression
